Assay results as given in US4017632A, “Phenoxyacetic acid derivatives” (Centre European de Recherches Pharmacologiques C.E.R.P.H.A., priority 1975, dated 1977).
At least one structure is not confirmed: it was looked up by name or label, or the drawing left a doubt.

Tested on: urinary excretion and clearance of uric acid
Test: Uricosuric activity in the phosphate-mannitol infused mongrel dog (renal clearance)
Type: in vivo
Conditions: intravenous, 5 or 15 mg/kg
Method: The uricosuric activity of the compound of example 1 was further studied.
The uricosuric activity is determined by intravenous administration of a test compound to the phosphate-mannitol infused mongrel dog as a rapid injection at doses of 5 or 15 mg/kg. Renal clearance studies are compared against control experiments conducted in the same dogs. The urate clearance is calculated from the plasma and urinary concentrations. […] For example, compound of example 1 at a dose of 5 mg/kg i.v. increased urate excretion as a percentage of glomerular filtration rate from a value of 27% up to 40% and at a dose of 15 mg/kg i.v. increased it from 28% up to 74%.

## O=C(O)COc1ccc(C(O)c2cccs2)c(Cl)c1Cl (stereo not shown) [Example 1, 2,3-dichloro-4-(2-thienyl-hydroxy-methyl)-phenoxy-acetic acid]
  urinary excretion and clearance of uric acid: markedly increased
